The numbers were not newly measured in patent US12698348B2, “Alkylated cyclodextrin compositions and processes for preparing and using the same” (CYDEX PHARMACEUTICALS, INC., priority 2020, dated 2026), which cites them from elsewhere.

The conditions of this data set: underivatized cyclodextrin, at saturation.

With `OC[C@H]1O[C@@H]2O[C@H]3[C@H](O)[C@@H](O)[C@@H](O[C@H]4[C@H](O)[C@@H](O)[C@@H](O[C@H]5[C@H](O)[C@@H](O)[C@@H](O[C@H]6[C@H](O)[C@@H](O)[C@@H](O[C@H]7[C@H](O)[C@@H](O)[C@@H](O[C@H]1[C@H](O)[C@H]2O)O[C@@H]7CO)O[C@@H]6CO)O[C@@H]5CO)O[C@@H]4CO)O[C@@H]3CO` [α-CD, α-cyclodextrin], the solubility in water result is reported as “about 145 g/L”.
